According to US8841077B2, “Biomarkers for amyotrophic lateral sclerosis and methods using the same” (Massachusetts General Hospital, priority 2006, dated 2014):

Assay: Metabolomic profiling (GC-MS/LC-MS) of CSF samples, ALS subjects vs control subjects (Example 1; Tables 3, 4)
Assay type: in vivo, human
Conditions: CSF; ALS mean as compared to control mean; T-tests of ALS vs. Controls

| Structure (SMILES) | % change in ALS [%] |
| --- | --- |
| O=C1CCNC(=O)N1 [5-6-dihydrouracil - 35, 5-6-dihydrouracil] | 7 |
| CCCCCCCCCCCC(=O)O [n-dodecanoate - 9, n-dodecanoate] | −2 |
| N[C@@H](COP(=O)(O)O)C(=O)O [3-phospho-l-serine - 9, 3-phospho-l-serine] | 0 |
| O=C(O)C(O)Cc1ccc(O)cc1 (stereo not drawn) [Metabolite - 1343 retired: p-hydroxyphenyllactic acid - 35] | −21 |
| N[C@@H](C[Se][Se]C[C@H](N)C(=O)O)C(=O)O [Selenocystine - 35, Selenocystine] | 7 |
| CN(C)[C@@H](CCCNC(=N)N)C(=O)O [N,N-dimethylarginine] | 24 |
| NC(=O)CC[C@H](N)C(=O)O [Glutamine - 35, Glutamine] | 6 |
| CCCCCCCCCCCCCC(=O)O [Tetradecanoic acid - 9, Tetradecanoic acid] | 14 |
| CC(=O)N[C@@H](C)C(=O)O [N-acetyl-L-alanine - 35, N-acetyl-L-alanine] | −12 |
| O=C(O)[C@H](O)COP(=O)(O)O [3-phospho-d-glycerate - 35, 3-phospho-d-glycerate] | 0 |
| CC(CN)C(=O)O (stereo not drawn) [3-amino-isobutyrate - 9, 3-amino-isobutyrate] | 31 |
| CC(C)(CO)[C@@H](O)C(=O)NCCC(=O)O [Pantothenic acid - 35, Pantothenic acid] | 27 |
| O=C(O)Cc1c[nH]c2ccc(O)cc12 [5-hydroxy-1H-indole-3-acetic acid - 9, 5-hydroxy-1H-indole-3-acetic acid] | −15 |
| N[C@@H](Cc1ccc(O)c([N+](=O)[O-])c1)C(=O)O [3-nitro-L-tyrosine - 35, 3-nitro-L-tyrosine] | 10 |
| CCCCC(CC)C(=O)O (stereo not drawn) [2-ethylhexanoic acid - 9, 2-ethylhexanoic acid] | 82 |
| CSC[C@H]1O[C@@H](n2cnc3c(N)ncnc32)[C@H](O)[C@@H]1O [5-S-methyl-5-thioadenosine - 35, 5-S-methyl-5-thioadenosine] | −7 |

Same assay, conditions: CSF; ALS mean as compared to the control mean

| Structure (SMILES) | % change in ALS [%] |
| --- | --- |
| CC(O)C(=O)O (stereo not drawn) [Metabolite - 2694 retired: lactate - 35] | 14 |
| O=CC[C@H](O)[C@H](O)CO [2-deoxy-D-ribose - 35] | 12 |
| CCCCCCCCCCCCCCCCO [1-Hexadecanol - 9] | 3 |
| NCCO [Monoethanolamine - 9] | −7 |
| O=C1CCNC(=O)N1 [5-6-dihydrouracil - 35, 5-6-dihydrouracil] | 7 |
| CCCCCCCCCCCC(=O)O [n-dodecanoate - 9, n-dodecanoate] | −2 |
| N[C@@H](COP(=O)(O)O)C(=O)O [3-phospho-l-serine - 9, 3-phospho-l-serine] | 0 |
| O=C(O)C(O)Cc1ccc(O)cc1 (stereo not drawn) [Metabolite - 1343 retired: p-hydroxyphenyllactic acid - 35] | −21 |
| N[C@@H](C[Se][Se]C[C@H](N)C(=O)O)C(=O)O [Selenocystine - 35, Selenocystine] | 7 |
| NC(=O)CC[C@H](N)C(=O)O [Glutamine - 35, Glutamine] | 6 |
| O=C(O)CCCC(=O)O [Pentanedioic acid - 9] | 1 |
| CCCCCCCCCCCCCC(=O)O [Tetradecanoic acid - 9, Tetradecanoic acid] | 14 |
| CC(=O)N[C@@H](C)C(=O)O [N-acetyl-L-alanine - 35, N-acetyl-L-alanine] | −12 |
| O=C(O)[C@H](O)COP(=O)(O)O [3-phospho-d-glycerate - 35, 3-phospho-d-glycerate] | 0 |
| CC(CN)C(=O)O (stereo not drawn) [3-amino-isobutyrate - 9, 3-amino-isobutyrate] | 31 |
| CC(C)(CO)[C@@H](O)C(=O)NCCC(=O)O [Pantothenic acid - 35, Pantothenic acid] | 27 |
| O=C(O)Cc1c[nH]c2ccc(O)cc12 [5-hydroxy-1H-indole-3-acetic acid - 9, 5-hydroxy-1H-indole-3-acetic acid] | −15 |
| N[C@@H](Cc1ccc(O)c([N+](=O)[O-])c1)C(=O)O [3-nitro-L-tyrosine - 35, 3-nitro-L-tyrosine] | 10 |
| CCCCC(CC)C(=O)O (stereo not drawn) [2-ethylhexanoic acid - 9, 2-ethylhexanoic acid] | 82 |
| CSC[C@H]1O[C@@H](n2cnc3c(N)ncnc32)[C@H](O)[C@@H]1O [5-S-methyl-5-thioadenosine - 35, 5-S-methyl-5-thioadenosine] | −7 |

Same assay, conditions: CSF; mean in ALS samples as compared to control samples

| Structure (SMILES) | Increase (+) or Decrease (−) in ALS |
| --- | --- |
| CC(O)C(=O)O (stereo not drawn) [Metabolite - 2694 retired: lactate - 35] | + |
| N=C(N)NCCCC(=O)O [Metabolite - 1842 retired: 4-Guanidinobutanoic acid - 35] | + |
| O=CC[C@H](O)[C@H](O)CO [2-deoxy-D-ribose - 35] | + |
| CCCCCCCCCCCCCCCCO [1-Hexadecanol - 9] | + |
| NCCO [Monoethanolamine - 9] | − |
| O=C1CCNC(=O)N1 [5-6-dihydrouracil - 35, 5-6-dihydrouracil] | + |
| CCCCCCCCCCCC(=O)O [n-dodecanoate - 9, n-dodecanoate] | − |
| O=C(O)C(O)Cc1ccc(O)cc1 (stereo not drawn) [Metabolite - 1343 retired: p-hydroxyphenyllactic acid - 35] | − |
| N[C@@H](C[Se][Se]C[C@H](N)C(=O)O)C(=O)O [Selenocystine - 35, Selenocystine] | + |
| NC(=O)CC[C@H](N)C(=O)O [Glutamine - 35, Glutamine] | + |
| O=C(O)CCCC(=O)O [Pentanedioic acid - 9] | + |
| CCCCCCCCCCCCCC(=O)O [Tetradecanoic acid - 9, Tetradecanoic acid] | + |
| CC(=O)N[C@@H](C)C(=O)O [N-acetyl-L-alanine - 35, N-acetyl-L-alanine] | − |
| CC(CN)C(=O)O (stereo not drawn) [3-amino-isobutyrate - 9, 3-amino-isobutyrate] | + |
| CC(C)(CO)[C@@H](O)C(=O)NCCC(=O)O [Pantothenic acid - 35, Pantothenic acid] | + |
| O=C(O)Cc1c[nH]c2ccc(O)cc12 [5-hydroxy-1H-indole-3-acetic acid - 9, 5-hydroxy-1H-indole-3-acetic acid] | − |
| N[C@@H](Cc1ccc(O)c([N+](=O)[O-])c1)C(=O)O [3-nitro-L-tyrosine - 35, 3-nitro-L-tyrosine] | + |
| CCCCC(CC)C(=O)O (stereo not drawn) [2-ethylhexanoic acid - 9, 2-ethylhexanoic acid] | + |
| CSC[C@H]1O[C@@H](n2cnc3c(N)ncnc32)[C@H](O)[C@@H]1O [5-S-methyl-5-thioadenosine - 35, 5-S-methyl-5-thioadenosine] | − |

Same assay, conditions: CSF; mean in ALS samples vs control samples; T-tests

| Structure (SMILES) | Increase (+) or Decrease (−) in ALS |
| --- | --- |
| N=C(N)NCCCC(=O)O [Metabolite - 1842 retired: 4-Guanidinobutanoic acid - 35] | + |
| O=C1CCNC(=O)N1 [5-6-dihydrouracil - 35, 5-6-dihydrouracil] | + |
| CCCCCCCCCCCC(=O)O [n-dodecanoate - 9, n-dodecanoate] | − |
| O=C(O)C(O)Cc1ccc(O)cc1 (stereo not drawn) [Metabolite - 1343 retired: p-hydroxyphenyllactic acid - 35] | − |
| N[C@@H](C[Se][Se]C[C@H](N)C(=O)O)C(=O)O [Selenocystine - 35, Selenocystine] | + |
| CN(C)[C@@H](CCCNC(=N)N)C(=O)O [N,N-dimethylarginine] | + |
| NC(=O)CC[C@H](N)C(=O)O [Glutamine - 35, Glutamine] | + |
| CCCCCCCCCCCCCC(=O)O [Tetradecanoic acid - 9, Tetradecanoic acid] | + |
| CC(=O)N[C@@H](C)C(=O)O [N-acetyl-L-alanine - 35, N-acetyl-L-alanine] | − |
| CC(CN)C(=O)O (stereo not drawn) [3-amino-isobutyrate - 9, 3-amino-isobutyrate] | + |
| CC(C)(CO)[C@@H](O)C(=O)NCCC(=O)O [Pantothenic acid - 35, Pantothenic acid] | + |
| O=C(O)Cc1c[nH]c2ccc(O)cc12 [5-hydroxy-1H-indole-3-acetic acid - 9, 5-hydroxy-1H-indole-3-acetic acid] | − |
| N[C@@H](Cc1ccc(O)c([N+](=O)[O-])c1)C(=O)O [3-nitro-L-tyrosine - 35, 3-nitro-L-tyrosine] | + |
| CCCCC(CC)C(=O)O (stereo not drawn) [2-ethylhexanoic acid - 9, 2-ethylhexanoic acid] | + |
| CSC[C@H]1O[C@@H](n2cnc3c(N)ncnc32)[C@H](O)[C@@H]1O [5-S-methyl-5-thioadenosine - 35, 5-S-methyl-5-thioadenosine] | − |

Same assay, conditions: human, in vivo

| Structure (SMILES) | % change in ALS [%] | Increase (+) or Decrease (−) in ALS |
| --- | --- | --- |
| Nc1ncnc2c1ncn2[C@@H]1O[C@@H]2COP(=O)(O)O[C@H]2[C@H]1O [Adenosine-3-5-cyclic-monophosphate - 35, Adenosine-3-5-cyclic-monophosphate] | −8 | − |
